Assay results reported in ChEMBL document CHEMBL3769315 (J Med Chem, 2016).

Legend:
Murine leukemia virus = assay: Antiviral activity against Murine leukemia virus pseudoparticle infected in human Huh7.5.1 cells at 1 uM after 4 hrs by luciferase reporter gene assay; type: functional; settings: Huh-7, 4 h
[1] = test system: Vesicular stomatitis virus; assay: Antiviral activity against Vesicular stomatitis virus G pseudoparticle infected in human Huh7.5.1 cells at 1 uM after 4 hrs by luciferase reporter gene assay; type: functional; settings: Huh-7, 4 h

Clc1ccc(C(c2ccc(Cl)cc2)N2CCNCC2)cc1
inhibition at 1 µM (Murine leukemia virus): 120%
inhibition at 1 µM [1]: 115%
